Source: publication PMC7993727, “Discovery of a novel AR/HDAC6 dual inhibitor for prostate cancer treatment” (Aging (Albany NY), 2021)
pIC50: −log10 of the molar value.

Legend:
Experiment in all cases: cell proliferation assay
Type in all cases: cell-based
HEK293 cells = conditions: Homo sapiens, HEK293, 72 h, read-out: IC50 values proliferation HEK293
VCaP cells = conditions: Homo sapiens, 168 h, read-out: IC50 values proliferation VCaP
Experimental: (§1) After 7 days, cell viability was measured using a CellTiter 96® AQueous One Solution Cell Proliferation Assay kit (Promega).

LNCaP cells = conditions: Homo sapiens, 72 h, read-out: IC50 values proliferation LNCaP
Experimental: as §1

DU145 cells = conditions: Homo sapiens, DU-145, 72 h, read-out: IC50 values proliferation DU145

SMILES: CNC(=O)c1ccc(N2C(=S)N(c3ccc(C#N)c(C(F)(F)F)c3)C(=O)C2(C)C)cc1F [MDV3100, reference compound]
- pIC50 (HEK293 cells): < 4.30
- pIC50 (VCaP cells): 4.96
- pIC50 (LNCaP cells): 4.59
- pIC50 (DU145 cells): < 4.30
